Each structure is given as a SMILES string. The list shows a part of the results. These are further read-outs of the screen, such as a control signal, another cell line or another target. No call is given for them. The list favours compounds with an active or inconclusive main result. Potencies come from curve fits of mixed quality, noted in brackets.

The assay in a line: Cell signaling CRE-BLA (Fsk stim). The note with it: CHO CRE-bla reporter (cAMP response element driving beta-lactamase), forskolin EC10, beta-lactamase ratio; measured here: 460 nm blue channel. Put shortly:
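Titrated compounds plus EC10 NKH 477 on CHO CRE-bla cells, 3 h, 37 °C. CCF4, 2 h RT. Ratio 460/530 nm → AC50.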
For the molecule `CCOC(=O)c1[nH]cnc1C(=O)Nc1ccncc1`, the AC50 was 10 µM [rising, partial curve].

Regarding `CCOC(=O)C1CCN(C(=O)C2CCN(S(=O)(=O)c3c(C)noc3C)CC2)CC1`, the half-maximal activity concentration (AC50) is 5.01 µM [rising, single point].

For `Cc1[nH]nc(-c2ccc(O)cc2O)c1-c1ccc(Cl)cc1`, the AC50 is 0.316 µM [falling, single point].

Take `COc1cccc(C2CC(c3ccccc3Cl)n3ncnc3N2)c1` (stereo not drawn): the AC50 is 12.6 µM [rising, single point].

In the case of `O=C(c1cnccn1)N1CCC2(CC1)CCN(C(c1ccccc1)c1ccccc1)CC2`, the AC50 is 15.8 µM [falling, single point].

Consider `CC(C)c1cccc2c([Si](C)(C)C)c3c(nc12)-c1cccc(=O)n1C3`, for which the AC50 was 6.31 µM [rising, partial curve].

For `COc1ccc2[nH]cc(CCNc3ccnc(-c4ccc(N(C)C)cc4)n3)c2c1`, the concentration at half-maximal activity (AC50) is 1.58 µM [rising, full curve].

Turning to `COc1ccc(OCc2nnc3n2N=C(c2ccc(C)cc2)CS3)cc1`, the AC50 was 12.6 µM [rising, partial curve].

Consider `COc1cccc(C2=NOC(C(=O)Nc3cccc(C(C)=O)c3)C2)c1OC` (stereo not drawn), for which the AC50 is 12.6 µM [rising, single point].

Turning to `COc1cc(NS(=O)(=O)c2ccc(OC)c(C)c2C)c(OC)cc1Cl`, the AC50 is 20 µM [rising, single point].

Take `CCOC(=O)c1c(NC(=O)c2ccc(Br)o2)sc(C)c1CC`: the concentration at half-maximal activity (AC50) is 6.31 µM [rising, partial curve].

On to `COc1cccc(Nc2ncc3nc(-c4ccc(Cl)cc4)c(=O)n(C[C@H]4CCCO4)c3n2)c1`, for which the AC50 is 2.51 µM [rising, full curve].

For the molecule `Cc1cc2c(C)nc(-c3ccccc3)nc2o1`, the AC50 was 0.316 µM [rising, full curve].

Regarding `COc1cc(Cl)ccc1NC(=O)COc1ccccc1C(=O)N1CCN(c2ccc(O)cc2)CC1`, the AC50 was 3.16 µM [rising, single point].

For `C=CCn1c2ccccc2c2nnc(SCC(=O)NC(C(=O)OC)C(C)C)nc21` (stereo not drawn), the AC50 was 5.01 µM [rising, partial curve].

With `COc1cc2c(cc1OC)C1=C(C#N)CCC(=O)N1CC2`, the AC50 is 0.316 µM [rising, full curve].

Take `COc1ccc(OC)c(NC(=O)C(CC(C)C)NC(=O)C2CCCCC2)c1` (stereo not drawn): the AC50 was 0.316 µM [falling, partial curve, poor fit].

For `COc1ccc(-n2nnnc2SCC(=O)c2cc3ccccc3o2)cc1`, the AC50 was 3.16 µM [falling, full curve].

As for `CCOC(=O)c1c(NC(=O)CSc2nnc(-c3cccnc3)o2)sc(C(C)=O)c1C`, the AC50 was 25.1 µM [falling, single point].

In the case of `Cc1nnc2n1NC(c1ccc(Cl)cc1)C(C(=O)N1CCC(C)CC1)S2` (stereo not drawn), the AC50 is 5.01 µM [falling, single point].

As for `Cc1ccc(-c2nnc3ccc(SCC(=O)N4CCCCC4)nn23)cc1`, the AC50 was 0.00316 µM [falling, full curve, poor fit].

In the case of `CC1CCCCN1S(=O)(=O)c1ccc2c(c1)oc(=O)n2CC(=O)O` (stereo not drawn), the AC50 was 7.94 µM [rising, partial curve].

For the molecule `CC1CCN(c2nc(-c3ccco3)c3c(c2C#N)CC(C)(C)OC3)CC1`, the AC50 was 10 µM [rising, partial curve].

Take `Clc1ss/c(=N\c2ccccn2)c1Cl`: the AC50 was 10 µM [falling, single point].

Turning to `N#Cc1nc(-c2ccccc2F)oc1NCc1cccc2c1OCO2`, the AC50 is 12.6 µM [rising, partial curve].

Turning to `O=C(Nc1nnc(C2CC2)s1)c1cccc(S(=O)(=O)N2CCc3ccccc32)c1`, the AC50 is 12.6 µM [rising, partial curve].

On to `CSCC[C@H](NC(=O)OC(C)(C)C)c1nnc(SCc2ccccc2)o1`, for which the AC50 is 3.16 µM [rising, single point].

For `Cc1noc(C)c1-c1nccc(NCc2cccnc2)n1`, the AC50 was 10 µM [rising, partial curve].

Turning to `CCCN1Cc2cccc(C(=O)NCc3ccccc3)c2C1=O`, the AC50 is 10 µM [rising, partial curve].

Turning to `Cn1c(=O)c2c(nc(N3CCN(Cc4ccccc4)CC3)n2CCSc2ncccn2)n(C)c1=O`, the AC50 was 25.1 µM [rising, single point].

For the molecule `CCNc1nc(N2CCOCC2)nc(N(c2ccccc2)c2ccccc2)n1`, the AC50 is 5.01 µM [falling, single point].

As for `Cc1nc2cnc(N3CCOCC3)nc2n(C2CC2)c1=O`, the AC50 is 12.6 µM [rising, partial curve].

For `Cc1ccc(S(=O)(=O)Nc2c(C)n(C)n(-c3ccccc3)c2=O)cc1C(=O)NCc1ccccn1`, the AC50 was 0.126 µM [falling, full curve, poor fit].

Regarding `CCCCOc1ccc(-c2nnc(-c3ccncc3)o2)cc1`, the half-maximal activity concentration (AC50) is 0.00316 µM [falling, full curve, poor fit].

With `O=c1[nH]c2cc3c(cc2cc1C(c1nnnn1C1CCCC1)N1CCSCC1)OCCO3` (stereo not drawn), the AC50 was 3.98 µM [rising, full curve].

As for `COc1cc2c(=O)n(Cc3ccco3)c(=O)n(CC(=O)c3cccc(Br)c3)c2cc1OC`, the AC50 was 2.51 µM [rising, full curve].

As for `O=C(Cn1cccc1C(=O)c1ccccc1)NCc1ccco1`, the AC50 is 0.126 µM [falling, full curve, poor fit].

Take `N#Cc1c(NC(=O)CSc2nnc(-c3ccncc3)n2CC2CCCO2)sc2c1CCCC2` (stereo not drawn): the concentration at half-maximal activity (AC50) is 10 µM [rising, partial curve].

As to `CC(SC1CCCC1)C(=O)Nc1ccnn1C(C)C` (stereo not drawn), the concentration at half-maximal activity (AC50) was 5.01 µM [falling, single point].

Take `CCOc1ccc(-c2nnc(N(CC)C(=O)C3CCC3)s2)cc1`: the AC50 was 12.6 µM [rising, single point].

For `Cc1ccc(S(=O)(=O)/C=C\C#N)cc1`, the AC50 was 2.51 µM [falling, partial curve].

With `COc1ccccc1-c1nc2s/c(=C\c3cccs3)c(=O)n2n1`, the concentration at half-maximal activity (AC50) is 1 µM [falling, partial curve].

For the molecule `CCCC(=O)OCCNC(=O)c1cc2ccccc2oc1=O`, the AC50 is 1 µM [rising, partial curve].

Consider `Cc1cc(=O)n2[nH]c(-c3ccc(Cl)cc3)cc2n1`, for which the AC50 was 5.01 µM [rising, single point].

As to `CCC(C)(C)NC(=O)CN(CC1CCCO1)C(=O)CCC(=O)Nc1nccs1` (stereo not drawn), the AC50 is 0.126 µM [rising, full curve, poor fit].

Turning to `COc1ccc(S(=O)(=O)N(C)CC(=O)N2CCCCCC2)cc1OC`, the AC50 is 10 µM [rising, partial curve].

For the molecule `COc1ccccc1C1/C(=C(/O)c2ccc(Cl)cc2)C(=O)C(=O)N1CCN1CCOCC1` (stereo not drawn), the AC50 is 5.01 µM [falling, partial curve, poor fit].

With `O=C1C(Cl)=C(N2CCOCC2)C(=O)N1c1ccccc1Cl`, the AC50 was 1.58 µM [falling, partial curve, poor fit].

Consider `CC1(C)OC(=O)N(c2ccccn2)C1(C)O` (stereo not drawn), for which the half-maximal activity concentration (AC50) is 3.98 µM [rising, single point].

Turning to `Cc1cccn2c(=O)c3cc(C#N)c(=NC(=O)c4ccc5c(c4)OCO5)n(CC(C)C)c3nc12`, the AC50 is 0.631 µM [rising, partial curve, poor fit].

Take `O=C(CCCCCn1c(=S)[nH]c2cc3c(cc2c1=O)OCO3)N1CCN(Cc2ccccc2)CC1`: the AC50 is 15.8 µM [rising, single point].

Turning to `Cc1ccc(-c2c(C)c(-c3ccc(F)cc3)nc(N)c2C#N)o1`, the AC50 is 3.16 µM [falling, full curve].

Take `CC(C)CNC(=O)c1cc(-c2ccc(Br)cc2)on1`: the AC50 is 25.1 µM [rising, single point].

Take `CCN(CC)S(=O)(=O)c1ccc2c3c(cccc13)C(=O)N2`: the half-maximal activity concentration (AC50) was 10 µM [rising, partial curve].

Regarding `Cc1cccn2cc(CNC(=O)C3CCCCC3)nc12`, the AC50 was 3.16 µM [rising, single point].

As to `O=C(NCC(c1cccnc1)N1CCOCC1)Nc1ccccc1` (stereo not drawn), the half-maximal activity concentration (AC50) is 0.158 µM [falling, single point].

For the molecule `CCn1nc(C(=O)OCC(=O)N2CCc3ccccc32)c2ccccc2c1=O`, the AC50 was 5.01 µM [rising, partial curve].

With `CC(C(=O)Nc1cccnc1)N1C(=O)C2C3C=CC(C3)C2C1=O` (stereo not drawn), the AC50 was 0.398 µM [falling, full curve].

As for `CCCCCC(=O)Nc1ccc2oc(-c3ccncc3)nc2c1`, the AC50 is 20 µM [rising, single point].

Regarding `CCCCn1c(NCCC)nc2c1c(=O)[nH]c(=O)n2C`, the AC50 is 10 µM [rising, single point].

As for `O=C(CSc1nnc(-c2ccncc2)n1CC1CCCO1)NCc1ccccc1` (stereo not drawn), the AC50 is 0.1 µM [falling, partial curve, poor fit].

`COc1cc(NC(=O)C2CCN(S(=O)(=O)c3cccc4nonc34)CC2)cc(OC)c1`: the AC50 is 0.0251 µM [falling, full curve, poor fit].

On to `COc1ccc(-c2nc3cnc(OC)nc3n(CCC#N)c2=O)cc1`, for which the half-maximal activity concentration (AC50) is 12.6 µM [rising, partial curve].

As to `COC(=O)c1ccc(CSc2nnnn2-c2ccccc2)o1`, the AC50 was 0.398 µM [falling, full curve].

For `CCOC(=O)CNC(=O)CSc1nc(N(C)C)nc(N2CCOCC2)n1`, the AC50 is 25.1 µM [rising, single point].

For `COc1ccc(C)cc1NC(=O)CSc1nnc(COc2ccc(Cl)cc2)n1Cc1ccco1`, the AC50 is 0.316 µM [falling, full curve, poor fit].

In the case of `CN/S(=N/S(=O)(=O)c1ccccc1)c1ccc(C)cc1` (stereo not drawn), the AC50 was 3.16 µM [falling, single point].

For `Cc1ccc(-n2cccc2C(=S)N=P(N(C)C)(N(C)C)N(C)C)cc1`, the AC50 is 5.01 µM [falling, single point].

The values are drawn from PubChem BioAssay AID662 (National Center for Advancing Translational Sciences (NCATS), 2007).
